“Also recorded” adds a separate entry of the source. Part of at least one peptide drawing is inferred or uncertain, most often the ends. Ends that are not written are not given here.
Assays:
biotin ligase (BirA) = biotin ligase (BirA) (Escherichia coli, UniProt P06709); assay: Cross-reactivity with biotin ligase (BirA) by HPLC; type: biochemical; conditions: 12 h reaction with 5 μM BirA
Lp1A [1] = target: T1, Lp1A (Escherichia coli, UniProt P32099); assay: Cell surface lipoylation of CFP-TM fusion constructs on mammalian cells; type: cell-based; conditions: HEK cells, 1 μM Lp1A, 10 min
Experimental: FIG. 8 depicts cell surface lipoylation of LAP4.3 vs. LAP4.3D. HeLa cells expressing either LAP4.3-CFP-TM or LAP4.3D-CFP-TM were lipoylated with 1 μM Lp1A for 10 minutes. Lipoylation was detected with Alexa568-conjugated anti-lipoic acid antibody.
However, expression levels of intracellular proteins are similar, whether fused to a LAP sequence or E2p. […] Scale bar, 10 μm. […] Single cell mean fluorescein/CFP intensity ratios were tabulated for >160 cells from >18 fields of view.
Second, the LAPs were compared in a cell surface lipoylation assay (FIG. 9). CFP-TM fusion constructs were expressed in human embryonic kidney 293 (HEK) cells, and lipoylation was carried out by purified Lp1A enzyme added to the media. After 10 min of labeling, lipoylated cell surface proteins were imaged using antilipoic acid antibody. […] To quantitatively compare the labeling efficiencies of all the LAP sequences, lipoylation signal (as measured by antibody staining intensity) was plotted against CFP signal for single cells.

Chains of the proteins cited; added tags and fusions are not shown.
UniProt P06709, whole entry: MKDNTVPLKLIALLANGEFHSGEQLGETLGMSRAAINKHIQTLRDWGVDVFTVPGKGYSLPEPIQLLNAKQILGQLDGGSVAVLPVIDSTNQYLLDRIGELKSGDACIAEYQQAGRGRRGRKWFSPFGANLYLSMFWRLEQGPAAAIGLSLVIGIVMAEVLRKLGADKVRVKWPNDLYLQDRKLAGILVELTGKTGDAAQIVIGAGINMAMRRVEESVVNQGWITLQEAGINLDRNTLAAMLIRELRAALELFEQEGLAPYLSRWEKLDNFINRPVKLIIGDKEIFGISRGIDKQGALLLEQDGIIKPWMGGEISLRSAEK

[2] = system: engineered coumarin fluorophore ligase; assay: Intracellular labeling of nuclear YFP fusions with 7-hydroxycoumarin; type: cell-based; conditions: HEK293T cells, 10 min
Lp1A [3] = target: T1, Lp1A; assay: Comparison of LAP-HP1 fusion proteins by HPLC assay (percent conversion to ligated product); type: biochemical; conditions: fused to the C-terminus of HP1, 50 nM Lp1A, 1 h
[4] = target: T2, Escherichia coli lipoic acid ligase (Lp1A) (Escherichia coli, UniProt P32099); assay: Lp1A-catalyzed lipoylation kinetics (kcat, Km) by HPLC; type: biochemical; conditions: synthetic LAP2 peptide, 50 nM Lp1A, 750 μM lipoic acid, 30° C.
T2 sequence (P32099 1-338): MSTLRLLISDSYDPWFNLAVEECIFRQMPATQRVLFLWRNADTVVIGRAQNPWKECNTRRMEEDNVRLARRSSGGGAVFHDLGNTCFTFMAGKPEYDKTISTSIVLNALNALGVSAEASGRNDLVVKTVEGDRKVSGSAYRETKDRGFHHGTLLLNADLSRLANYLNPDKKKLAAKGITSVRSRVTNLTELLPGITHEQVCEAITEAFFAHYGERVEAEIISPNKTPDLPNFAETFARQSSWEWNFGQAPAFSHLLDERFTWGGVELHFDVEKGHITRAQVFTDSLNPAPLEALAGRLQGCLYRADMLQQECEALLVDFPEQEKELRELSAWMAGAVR

GFEIDKVWYDLDA [LAP2]
biotinylation by BirA (biotin ligase (BirA)): No biotinylation was found | cell surface lipoylation (antilipoic acid antibody imaging) (Lp1A [1]; CFP-TM fusions): lipoylated to a similar degree; also recorded: easily lipoylated, even at low expression levels | average lipoylation signal / CFP signal ratio (labeling efficiency) (Lp1A [1]; single cells): labeled more efficiently than the other LAP sequences, and is comparable even to E2p | intracellular coumarin labeling efficiency (coumarin vs YFP intensity) [2]: labeled more efficiently than the other LAP sequences in the cytosol, and gives even higher signal intensities than E2p, at high expression levels | percent conversion to lipoylated product (comparison) (Lp1A [3]): decreased somewhat, but was still higher than all other LAP sequences at the N-terminus | kcat for lipoic acid ligation [4]: 0.22 ± 0.01 s⁻¹

From patent publication US8759482B2, “Kinetically efficient substrate for lipoic acid ligase” (Massachusetts Institute of Technology, priority 2009, dated 2014)
